Literature values as cited in patent US20220040160A1, “COMBINATION OF HISTONE DEACETYLASE INHIBITOR AND IMMUNOTHERAPY” (The United States of America,as represented by the …, priority 2016, published 2022).
For at least one compound, name, drawing or mass did not settle the structure.

Tested on: CRPC
Details: patients with CRPC previously treated with docetaxel; cited from earlier work

In the case of `C[C@]12CC[C@H](O)CC1=CC[C@@H]1[C@@H]2CC[C@]2(C)C(c3cccnc3)=CC[C@@H]12` [abiraterone], the “improvement of overall survival compared to placebo” value is listed as 3.9 months.
